Laboratory results reported in patent US20250091989A1, “SMALL MOLECULE PROTEIN SYNTHESIS MODULATORS” (Interdict Bio, Inc., priority 2023, published 2025).
At least one structure is not confirmed: it was looked up by name or label, or the drawing left a doubt.

What was measured:
Type in all cases: biochemical
Settings in all cases: HeLa S3 lysate, sfGFP/mCherry ratio, 2 hrs at 30° C.
ALK = test: In vitro transcription-translation (IVTT) reporter assay, ALK test sequence
Description: (§1) All reporter constructs have been cloned into the pT7CFE1-CHis plasmid (ThermoFisher #88860) using Gibson assembly procedures (NEB #E2611L). The parental pT7CFE1-CHis plasmid contains an EMCV IRES at the 5′UTR for translation initiation, a multiple-cloning site (MCS) for gene insertion, an optional C-terminal His-epitope tag, and polyA sequence in the 3′UTR to regulate mRNA stability. All reporters are designed to be inserted at the MCS to include a red fluorescent protein (mCherry), P2A self-cleaving peptide which releases the preceding mCherry protein product, and a fusion open reading frame containing a 3×FLAG epitope, a peptide sequence of interest (TEST), and green fluorescent protein (sfGFP).
(§2) Construct Plasmid Preparation: All plasmids are isolated from MACH1 cells (ThermoFisher) grown overnight in ampicillin-containing luria broth, and purified using ZymoPure Express Plasmid Midiprep Kit (Zymo Research). Constructs are sequenced verified and diluted to a working concentration of 110 ng/μL.
(§3) HeLa S3 Lysate Preparation: HeLa S3 cell pellets are acquired from Ipracell/Ipratech (Belgium) and shipped as 4 mL frozen cell pellets on dry ice for storage at −80° C. until use. The procedure for lysate preparation is as follows. Prepare 1× Lysis Buffer, cold and stored on ice:
(§4) Each preparation takes 8 cell pellets (4 ml packed volume each, approximately 1.0×10^9 cells per pellet). […]

MYC = test: In vitro transcription-translation (IVTT) reporter assay, MYC test sequence
Description: as §1, §2, §3, §4

KRAS G12D = test: In vitro transcription-translation (IVTT) reporter assay, KRAS G12D test sequence
Description: as §1, §2, §3, §4

CCND1 = test: In vitro transcription-translation (IVTT) reporter assay, CCND1 test sequence
Description: as §1, §2, §3, §4

Measured: IC50

CC(=O)O[C@@H]1[C@@H](O)CN[C@@H]1Cc1ccc(O)cc1 [V186809, (2R,3S,4S)-4-hydroxy-2-[(4-hydroxyphenyl)methyl]pyrrolidin-3-yl acetate]
< 10 µM: ALK | MYC | KRAS G12D

CC(=O)O[C@@H]1[C@@H](O)CN[C@@H]1Cc1ccc(-c2c[nH]nn2)cc1 [V186812, (2R,3S,4S)-4-hydroxy-2-{[4-(1H−1,2,3-triazol-4-yl)phenyl]methyl}pyrrolidin-3-yl acetate]
< 10 µM: MYC | CCND1 | KRAS G12D
